From patent US20100152297A1, “COMPOSITION FOR REGULATING CELLULAR SENESCENCE COMPRISING N-[2-(CYCLOHEXY-LOXYL)-4-NITROPHENYL]-METHANESULFONAMIDE” (priority 2007, published 2010)
At least one compound was matched to its structure with a doubt left.

Tests used:
caveolin-1 = experiment: Western blot, caveolin-1 expression; assay type: cell-based, human
Procedure: (§1) In order to examine the effects of COX-2 inhibitors on cellular senescence, cells were cultured and treated in the same manner as in Example 2, and then subjected to Western blot. The cultured cells were washed and collected in PBS, and then were disrupted in RIPA buffer (150 mM NaCl, 100 mM Tris-HCl, 1% Tween-20, 1% sodium deoxycholate and 0.1% SDS), containing 0.5 mM EDTA, 1 mM PMSF, 10 μg/ml leupeptin, 10 μg/ml aprotinin and 10 μg/ml pepstatin. The disrupted cells were centrifuged, and the supernatant was collected. Proteins in the cell extract were isolated by SDS-PAGE and transferred to nitrocellulose membranes. Then, the proteins were allowed to react with each of p53, p21, COX-1, COX-2 and caveolin-1 antibodies, and the protein-antibody complexes on the nitrocellulose membranes were allowed to react with peroxidase-conjugated anti-mouse or anti-rabbit secondary antibody. Then, the corresponding bands were visualized by chemiluminescence (Amersham Bioscience, Boston, Mass.) using an ECL kit. Herein, the antibodies for p53, p21 and COX-1 were purchased from Oncogene Science (Cambridge, Mass.), Cell Signaling Technology, Inc. (Danvers, Mass.), and Santa Cruz Biotechnology (Santa Cruz, Calif.), respectively, and the antibodies for COX-2 and cavelolin-1 were purchased from BD Bioscience (San Jose, Calif.). […]

catalase = experiment: Western blot, catalase expression; assay type: cell-based, human; conditions: P28 cells cultured in the presence of inhibitor
p21 = experiment: Western blot, p21 expression; assay type: cell-based, human; conditions: cells cultured with inhibitor, harvested at each passage
Procedure: as §1

[1] = test system: Gpx-1 (glutathione peroxidase-1); experiment: Western blot, Gpx-1 expression; assay type: cell-based, human; conditions: P28 cells cultured in the presence of inhibitor
[2] = test system: SOD-2 (superoxide dismutase-2); experiment: Western blot, SOD-2 expression; assay type: cell-based, human; conditions: P28 cells cultured in the presence of inhibitor
caveolin-1 mRNA = experiment: RT-PCR, caveolin-1 mRNA; assay type: cell-based, human; conditions: corrected with GAPDH
Procedure: In order to examine the effects of COX-2 inhibitors on cellular senescence, cells were cultured and treated in the same manner as in Example 2, and then subjected to RT-PCR. […] The cavelolin-1 gene was amplified using a sense primer ([NT]) and an anti-sense primer ([NT]), and the GAPDH gene was amplified using a sense primer ([NT]) and an anti-sense primer ([NT]). The polymerase chain reaction was performed in the following conditions: 25 cycles of 30 sec at 95 t, 30 sec at 60° C. and 30 sec at 72° C. The resulting DNA products were electrophoresed on 2% agarose gel containing EtBr.

human fibroblasts = experiment: Regulation of growth rate: number of population doublings (PDs); assay type: cell-based
Procedure: According to the literature of Boyce and Ham (1983), human fibroblasts were isolated from foreskin, and then cultured in a DMEM medium, containing 10% fetal bovine serum (Life Technology Inc., Grand Island, N.Y.), penicillin (100 units/ml) and streptomycin (100 units/ml)). […] Then, the number of the cells was calculated by trypan blue staining, and the number of population doublings (PDs) of the cells was calculated according to the following equation 1: Number of population doublings (PDs)=log(A/B)/log2 [Math Figure 1] wherein A is the number of cells harvested at one passage, and B is the initial cell number at that passage.

total cholesterol = experiment: Analysis of intracellular total cholesterol; assay type: cell-based, human; conditions: corrected with protein concentration
Procedure: In order to examine the effects of COX-2 inhibitors on cellular senescence, cells were cultured and treated in the same manner as in Example 2, and then analyzed for cholesterol. 2×10^6 cells were treated with a mixture of chloroform and methanol (2:1) to extract a fatty component. The amount of total cholesterol in the fatty component was measured at 570 nm using a staining method according to the manual of BioVision (Mountain View, Calif.), and the measured values were corrected with the protein concentration.

Cc1ccc(-c2cc(C(F)(F)F)nn2-c2ccc(S(N)(=O)=O)cc2)cc1 [celecoxib]
expression of caveolin-1 (caveolin-1; cells cultured with inhibitor, harvested at each passage): increased
expression of caveolin-1, short treatment (caveolin-1; short period of time (NS-398: 4 hours)): did not significantly change
expression of catalase (catalase): reduced
expression of p21 (p21): inhibited
expression of Gpx-1 [1]: had no effect
expression of SOD-2 [2]: reduced
mRNA level of caveolin-1 (caveolin-1 mRNA): increased
reduction of the maximum number of population doublings compared to DMSO (human fibroblasts; PD 24 before treatment, celecoxib 1 μM, nimesulide 20 μM, aspirin 1 mM, ibuprofen 20 μM, flurbiprofen 5 μM): two
effect on cellular senescence (human fibroblasts; conclusion from population doublings and SA-β-gal staining): promoted cellular senescence
intracellular total cholesterol concentration (total cholesterol): increased
